Measurements: patent US20060252707A1, “Pharmaceutical composition for the treatment and/or the prevention of atherosclerosis from infectious origin” (UNIVERSITE DE LIEGE, priority 2003, published 2006)
For at least one compound, name, drawing or mass did not settle the structure.

Assays:
Assay type in all cases: cell-based, human
TNFα = TNFα production (ELISA, culture supernatant) by THP-1 cells pre-incubated with Chlamydia pneumoniae; details: 10^−9 M to 10^−5 M; THP-1 pre-incubated (19h) with Chlamydia
Description: (§1) By using this model, one may verify that the monocyte incubation with C. pneumoniae during 19 hours, enhances the production of TNFα(FIG. 6, part 1) and IL-8 ([…]), as measured by immunological methods (ELISA type) in the culture supernatant.

[1] = tested on: THP-1 cells conditioned with Chlamydia pneumoniae; assay: Oxidant activity (ethylene production from KMB, gas liquid chromatography) of THP-1 cells conditioned with Chlamydia pneumoniae, then stimulated by PMA; details: for effect on oxidant activity / oxidation rate: drug added at cell conditioning with Chlamydia (pre-incubation 19 hours), then PMA 10^−7 M
Description: This model has been described in details in Mouithys Mickalad et al. (Biochem Biophys Res Comm 2001, 287: 781-788). Treatment of the Cells with Chlamydia pneumoniae:
The monocytes (in multiwell plates, 2×10^6 cells/well) are conditioned by a pre-incubation of 19 hours with elementary bodies of Chlamydia pneumoniae (at a dose equivalent to a mean endotoxin concentration of 3.3 pg). The elementary bodies are obtained by Chlamydia culture in MacCoy cells (American Type Culture Collection, Rockville, USA).
After incubation with C. pneumoniae, the cells are washed and detached from the wells; they are put in sterile vials and an oxidable substrate, α-keto-methyl butyric acid (KMB) at 10^−3 M, is added. The vial is sealed and the following reagents are added by needle puncture. through the septum: 200 U horseradish peroxidase (HRP) and 10^−7 M phorbol myristate acetate (PMA).
PMA is a monocyte activator, enhancing the superoxide anion production by these cells. Superoxide anion dismutates into hydrogen peroxide (H2O2), which is used by HRP to form more oxidant species, able to oxidize KMB, releasing ethylene. After 3 hours of incubation at 37° C, ethylene, which has accumulated in the gaseous phase of the sealed vial is measured by gas liquid chromatography, on a Porapak T column (TM) equipped with flame ionisation detector. These assays can be made with the prior addition of a reagent able to inhibit or to stimulate the monocytes, the reagent being added, either at pre-incubation (at the same time as the Chlamydia EB), or at the moment of PMA activation.

[2] = tested on: nuclear transcription factor kappaB (NF-κB); assay: Activation of NF-κB (binding to DNA) by electrophoretic mobility shift assay in THP-1 cells pre-incubated with Chlamydia; details: at 10^−5 and 10^−6 M
Description: FIG. 7 represents the effects of pre-incubation with Chlamydia on the activity of the nuclear transcription factor kappaB (NF-kB) (column 2). NF-kB is expressed in % of column 1 (THP-1 cells without preincubation with C pneumoniae)
The activation of NF-κB was measured by the technique of <<electrophoretic mobility shift assay>> (EMSA) (Schoonbroodt et al., 2000, J Immunol. 164: 4292-4300; Nys et al., 2003, Nitric Oxide 9: 33-43) (FIG. 7). The activation of NF-κB is expressed in % of control cells (cells which have not been pre-incubated with Chlamydia) (column 1). The incubation of monocytes with C. pneumoniae activates the NF-κB binding to DNA (FIG. 7, column 2).

p22^phox = assay: Gene expression (PCR) of NADPH-oxidase subunit p22phox in THP-1 cells incubated with Chlamydia; details: FIG. 16; 10^−4 to 10^−6 M
Description: FIG. 16 represents the genetic expression of one of the subunits of NADPH-oxidase, the p22^phox, and the effects of glucocorticoids, hydrocortisone (HCT) and methylprednisolone (MPL) (data are expressed as relative values by comparison with a reference gene).
By the PCR (<<polymerase chain reaction>>) method, it was observed that the incubation of monocytes with C. pneumoniae increased the expression of the genes (FIG. 8, column 2 compared to column 1) coding for interleukines 1β (IL-1β) (FIG. 8, part 1), 6 (IL-6) (FIG. 8, part 2) and 8 (IL-8) (FIG. 8, part 3), coding for inducible cyclo-oxygenase (COX-2) (FIG. 8, part 4) and coding for one of the subunits of NADPH-oxidase, the p22 protein (p22^phox) (FIG. 8, part 5) (results are presented as relative values by comparison with a reference gene).

IL-8 = IL-8 production (ELISA, culture supernatant) by THP-1 cells pre-incubated with Chlamydia pneumoniae; details: 10^−9 M to 10^−5 M; THP-1 pre-incubated (19h) with Chlamydia
Description: as §1

SMILES | effect on production of TNFα (TNFα) | effect on oxidation processes ([1]; FIG. 14, pre-incubated with Chlamydia or added directly before PMA, 10^−4 to 10^−6 M) | effect on the activation of NF-κB [2] | effect on gene expression of p22^phox (p22^phox) | effect on production of IL-8 (IL-8) | effect on oxidant activity / oxidation rate [1] | effect on ethylene production ([1]; not pre-incubated, added directly before the stimulation by PMA)
C[C@H]1C[C@@H]2[C@H]([C@@H](O)C[C@@]3(C)[C@H]2CC[C@]3(O)C(=O)CO)[C@@]2(C)C=CC(=O)C=C12 [MPL, methylprednisolone] | does not inhibit TNFα production, except at 10^−5 M | either stimulates the oxidation processes or exerts no significant inhibition | without significant effect | inhibitors | inhibits the IL-8 production at 10^−5 and 10^−6 M |  | 
COC(=O)C1=C(C)NC(C)=C(C(=O)OC)C1c1ccccc1[N+](=O)[O-] [adalat, nifepidine] |  |  |  |  |  | little or no effect | 
C[C@]12CC[C@@H]3c4ccc(O)cc4CC[C@H]3[C@@H]1CC[C@@H]2O [estradiol] |  |  |  |  |  | favouring the oxidation rate | quite completely inhibit the ethylene production
